Measurements reported in PubChem BioAssay AID1159595 (NIAID, 2016)
In all, the deposit lists 756 reagents; below is a part drawn at random. 115 of them (15%) count as active. 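Active calls cover both lowered and raised reporter signal; each score refers to one siRNA rather than a whole gene.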 Reagents against one gene are numbered here. Not stated in the record: the amount of reagent.

- Assay: 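How silencing each gene alters a Tnf reporter after TLR2 stimulation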 (primary screen)
- System: mouse RAW264.7 macrophage reporter cells
- Knock-down reagent: single siRNA against mouse genes
- Time to read-out: assayed 48 to 72 hours after siRNA transfection; ligand applied for 16 hours
- Conditions: Pam3CSK4 (TLR2 ligand) for 16 hours before fixation; dose not given
- Measured: 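High-content imaging of Tnf promoter-driven nuclear mCherry in cells given Pam3CSK4 for 16 h, 48–72 h after transfection; value is the replicate mean of plate-normalised background-corrected robust z-scores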
- Direction: Tnf reporter z-score (replicate mean): higher = stronger Tnf promoter reporter signal than negative control wells
- Active means: 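An siRNA is active when its replicate-mean z-score is -1.5 or lower or 1.5 or higher (activity score at least 50); activity graded at absolute z 1, 1.5, 2 and 2.5; calls apply to single siRNAs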
- Meaning of the calls: active = strong change (up or down); inactive = little change

Gene,reagent,Tnf reporter z-score (replicate mean),Call
Akt3 (Akt serine/threonine kinase 3),1,-1.36,inactive
Akt3 (Akt serine/threonine kinase 3),2,0.909,inactive
Akt3 (Akt serine/threonine kinase 3),3,-1.69,active
Akt3 (Akt serine/threonine kinase 3),4,-0.731,inactive
Akt3 (Akt serine/threonine kinase 3),5,-0.705,inactive
Akt3 (Akt serine/threonine kinase 3),6,-1.49,inactive
Stat1 (signal transducer and activator of transcription 1),1,0.402,inactive
Stat1 (signal transducer and activator of transcription 1),2,0.376,inactive
Stat1 (signal transducer and activator of transcription 1),3,-0.764,inactive
Stat1 (signal transducer and activator of transcription 1),4,-0.133,inactive
Stat1 (signal transducer and activator of transcription 1),5,-0.886,inactive
Stat1 (signal transducer and activator of transcription 1),6,-1.95,active
Ccl3 (C-C motif chemokine ligand 3),1,-0.642,inactive
Ccl3 (C-C motif chemokine ligand 3),2,0.379,inactive
Ccl3 (C-C motif chemokine ligand 3),3,-0.813,inactive
Ccl3 (C-C motif chemokine ligand 3),4,-0.488,inactive
Ccl3 (C-C motif chemokine ligand 3),5,-0.172,inactive
Ccl3 (C-C motif chemokine ligand 3),6,-1.66,active
Map2k3 (mitogen-activated protein kinase kinase 3),1,-0.242,inactive
Map2k3 (mitogen-activated protein kinase kinase 3),2,-0.66,inactive
Map2k3 (mitogen-activated protein kinase kinase 3),3,0.178,inactive
Map2k3 (mitogen-activated protein kinase kinase 3),4,-1.12,inactive
Map2k3 (mitogen-activated protein kinase kinase 3),5,-0.862,inactive
Map2k3 (mitogen-activated protein kinase kinase 3),6,0.346,inactive
Egr2 (early growth response 2),1,-0.496,inactive
Egr2 (early growth response 2),2,-1.6,active
Egr2 (early growth response 2),3,-1.35,inactive
Egr2 (early growth response 2),4,-3.05,active
Egr2 (early growth response 2),5,-1.48,inactive
Egr2 (early growth response 2),6,-0.332,inactive
Tlr1 (toll-like receptor 1),1,0.302,inactive
Tlr1 (toll-like receptor 1),2,0.318,inactive
Tlr1 (toll-like receptor 1),3,0.132,inactive
Tlr1 (toll-like receptor 1),4,0.498,inactive
Tlr1 (toll-like receptor 1),5,0.172,inactive
Tlr1 (toll-like receptor 1),6,-0.149,inactive
Akt2 (Akt serine/threonine kinase 2),1,-1.66,active
Akt2 (Akt serine/threonine kinase 2),2,-0.599,inactive
Akt2 (Akt serine/threonine kinase 2),3,-0.812,inactive
Akt2 (Akt serine/threonine kinase 2),4,-1.81,active
Akt2 (Akt serine/threonine kinase 2),5,-0.654,inactive
Akt2 (Akt serine/threonine kinase 2),6,-1.31,inactive
Pik3r3 (phosphoinositide-3-kinase regulatory subunit 3),1,-1.57,active
Pik3r3 (phosphoinositide-3-kinase regulatory subunit 3),2,-0.114,inactive
Pik3r3 (phosphoinositide-3-kinase regulatory subunit 3),3,0.0674,inactive
Pik3r3 (phosphoinositide-3-kinase regulatory subunit 3),4,-0.394,inactive
Pik3r3 (phosphoinositide-3-kinase regulatory subunit 3),5,0.252,inactive
Pik3r3 (phosphoinositide-3-kinase regulatory subunit 3),6,-0.679,inactive
Itgax (integrin alpha X),1,1.01,inactive
Itgax (integrin alpha X),2,-0.0601,inactive
Itgax (integrin alpha X),3,-1.17,inactive
Itgax (integrin alpha X),4,0.0481,inactive
Itgax (integrin alpha X),5,0.758,inactive
Itgax (integrin alpha X),6,0.345,inactive
Ikbkb (inhibitor of kappaB kinase beta),1,-0.734,inactive
Ikbkb (inhibitor of kappaB kinase beta),2,-1.76,active
Ikbkb (inhibitor of kappaB kinase beta),3,-0.752,inactive
Ikbkb (inhibitor of kappaB kinase beta),4,-0.42,inactive
Ikbkb (inhibitor of kappaB kinase beta),5,-1.19,inactive
Ikbkb (inhibitor of kappaB kinase beta),6,-1.26,inactive
"Rel (Rel proto-oncogene, NFKB subunit)",1,-1.15,inactive
"Rel (Rel proto-oncogene, NFKB subunit)",2,0.754,inactive
"Rel (Rel proto-oncogene, NFKB subunit)",3,0.219,inactive
"Rel (Rel proto-oncogene, NFKB subunit)",4,-0.0503,inactive
"Rel (Rel proto-oncogene, NFKB subunit)",5,-1.22,inactive
"Rel (Rel proto-oncogene, NFKB subunit)",6,-0.885,inactive
Ly86 (lymphocyte antigen 86),1,-0.000627,inactive
Ly86 (lymphocyte antigen 86),2,0.111,inactive
Ly86 (lymphocyte antigen 86),3,-0.255,inactive
Ly86 (lymphocyte antigen 86),4,1.16,inactive
Ly86 (lymphocyte antigen 86),5,1.18,inactive
Ly86 (lymphocyte antigen 86),6,-0.854,inactive
Tlr2 (toll-like receptor 2),1,-0.447,inactive
Tlr2 (toll-like receptor 2),2,-0.257,inactive
Tlr2 (toll-like receptor 2),3,-0.29,inactive
Tlr2 (toll-like receptor 2),4,0.968,inactive
Tlr2 (toll-like receptor 2),5,-1,inactive
Tlr2 (toll-like receptor 2),6,-1.03,inactive
Mapk1 (mitogen-activated protein kinase 1),1,-1.17,inactive
Mapk1 (mitogen-activated protein kinase 1),2,-2.07,active
Mapk1 (mitogen-activated protein kinase 1),3,-2.22,active
Mapk1 (mitogen-activated protein kinase 1),4,-0.483,inactive
Mapk1 (mitogen-activated protein kinase 1),5,-0.0672,inactive
Mapk1 (mitogen-activated protein kinase 1),6,-0.425,inactive
Irf3 (interferon regulatory factor 3),1,1.23,inactive
Irf3 (interferon regulatory factor 3),2,0.785,inactive
Irf3 (interferon regulatory factor 3),3,-2.32,active
Irf3 (interferon regulatory factor 3),4,-1.21,inactive
Irf3 (interferon regulatory factor 3),5,-0.458,inactive
Irf3 (interferon regulatory factor 3),6,0.387,inactive
Ep300 (E1A binding protein p300),1,-2.25,active
Ep300 (E1A binding protein p300),2,-0.791,inactive
Ep300 (E1A binding protein p300),3,1.34,inactive
Ep300 (E1A binding protein p300),4,-0.031,inactive
Ep300 (E1A binding protein p300),5,0.107,inactive
Ep300 (E1A binding protein p300),6,-0.746,inactive
Otud5 (OTU domain containing 5),1,0.177,inactive
Otud5 (OTU domain containing 5),2,-1.45,inactive
Otud5 (OTU domain containing 5),3,-0.576,inactive
Otud5 (OTU domain containing 5),4,-0.755,inactive
Otud5 (OTU domain containing 5),5,-1.13,inactive
Otud5 (OTU domain containing 5),6,-1.22,inactive
Mapk9 (mitogen-activated protein kinase 9),1,-0.106,inactive
Mapk9 (mitogen-activated protein kinase 9),2,-0.00749,inactive
Mapk9 (mitogen-activated protein kinase 9),3,-1.27,inactive
Mapk9 (mitogen-activated protein kinase 9),4,0.821,inactive
Mapk9 (mitogen-activated protein kinase 9),5,-0.794,inactive
Mapk9 (mitogen-activated protein kinase 9),6,0.365,inactive
Dusp2 (dual specificity phosphatase 2),1,-0.599,inactive
Dusp2 (dual specificity phosphatase 2),2,-2.03,active
Dusp2 (dual specificity phosphatase 2),3,2.8,active
Dusp2 (dual specificity phosphatase 2),4,0.837,inactive
Dusp2 (dual specificity phosphatase 2),5,-0.294,inactive
Dusp2 (dual specificity phosphatase 2),6,-0.441,inactive
